Data reported in US20250009692A1, “Micronutrient composition to prevent and reverse protein glycation during oxidative stress in human” (priority 2023, published 2025).
Some of these results come from one statement about several compounds together. At least one compound was matched to its structure with a doubt left.

Tested on: subunit I of Complex IV (COX-I)
Assay: Mitobiogenesis In-Cell ELISA, COX-I levels in H9c2 cells
Format: cell-based, Rat
Conditions: H9c2 heart muscle cells, 24 hours treatment; FIG. 7

O=C([O-])CC(O)C(=O)[O-].[Mg+2] (stereo not shown) [magnesium malate, Magnesium Malate]
increase of Cox-1 levels compared to control: 52-58%
